The values that follow come from paper PMC10011557.

Results are given in words; binding and its absence hold for the method and conditions named. Binding seen in cells or lysates may run through a third protein. A yes stands for co-enrichment or nearness to the bait. Other partners may have been found.

B1: cell division cycle 37 (CDC37) (protein, UniProt Q16543 1-378)
chain: MVDYSVWDHIEVSDDEDETHPNIDTASLFRWRHQARVERMEQFQKEKEELDRGCRECKRKVAECQRKLKELEVAEGGKAELERLQAEAQQLRKEERSWEQKLEEMRKKEKSMPWNVDTLSKDGFSKSMVNTKPEKTEEDSEEVREQKHKTFVEKYEKQIKHFGMLRRWDDSQKYLSDNVHLVCEETANYLVIWCIDLEVEEKCALMEQVAHQTIVMQFILELAKSLKVDPRACFRQFFTKIKTADRQYMEGFNDELEAFKERVRGRAKLRIEKAMKEYEEEERKKRLGPGGLDPVEVYESLPEELQKCFDVKDVQMLQDAISKMDPTDAKYHMQRCIDSGLWVPNSKASEAKEGEEAGPGDPLLEAVPKTGDEKDVSV
B2: ubiquitin-conjugating enzyme E2 O (UBE2O) (enzyme, UniProt Q9C0C9 1-1292)
chain: MADPAAPTPAAPAPAQAPAPAPEAVPAPAAAPVPAPAPASDSASGPSSDSGPEAGSQRLLFSHDLVSGRYRGSVHFGLVRLIHGEDSDSEGEEEGRGSSGCSEAGGAGHEEGRASPLRRGYVRVQWYPEGVKQHVKETKLKLEDRSVVPRDVVRHMRSTDSQCGTVIDVNIDCAVKLIGTNCIIYPVNSKDLQHIWPFMYGDYIAYDCWLGKVYDLKNQIILKLSNGARCSMNTEDGAKLYDVCPHVSDSGLFFDDSYGFYPGQVLIGPAKIFSSVQWLSGVKPVLSTKSKFRVVVEEVQVVELKVTWITKSFCPGGTDSVSPPPSVITQENLGRVKRLGCFDHAQRQLGERCLYVFPAKVEPAKIAWECPEKNCAQGEGSMAKKVKRLLKKQVVRIMSCSPDTQCSRDHSMEDPDKKGESKTKSEAESASPEETPDGSASPVEMQDEGAEEPHEAGEQLPPFLLKEGRDDRLHSAEQDADDEAADDTDDTSSVTSSASSTTSSQSGSGTSRKKSIPLSIKNLKRKHKRKKNKITRDFKPGDRVAVEVVTTMTSADVMWQDGSVECNIRSNDLFPVHHLDNNEFCPGDFVVDKRVQSCPDPAVYGVVQSGDHIGRTCMVKWFKLRPSGDDVELIGEEEDVSVYDIADHPDFRFRTTDIVIRIGNTEDGAPHKEDEPSVGQVARVDVSSKVEVVWADNSKTIILPQHLYNIESEIEESDYDSVEGSTSGASSDEWEDDSDSWETDNGLVEDEHPKIEEPPIPPLEQPVAPEDKGVVISEEAATAAVQGAVAMAAPMAGLMEKAGKDGPPKSFRELKEAIKILESLKNMTVEQLLTGSPTSPTVEPEKPTREKKFLDDIKKLQENLKKTLDNVAIVEEEKMEAVPDVERKEDKPEGQSPVKAEWPSETPVLCQQCGGKPGVTFTSAKGEVFSVLEFAPSNHSFKKIEFQPPEAKKFFSTVRKEMALLATSLPEGIMVKTFEDRMDLFSALIKGPTRTPYEDGLYLFDIQLPNIYPAVPPHFCYLSQCSGRLNPNLYDNGKVCVSLLGTWIGKGTERWTSKSSLLQVLISIQGLILVNEPYYNEAGFDSDRGLQEGYENSRCYNEMALIRVVQSMTQLVRRPPEVFEQEIRQHFSTGGWRLVNRIESWLETHALLEKAQALPNGVPKASSSPEPPAVAELSDSGQQEPEDGGPAPGEASQGSDSEGGAQGLASASRDHTDQTSETAPDASVPPSVKPKKRRKSYRSFLPEKSGYPDIGFPLFPLSKGFIKSIRGVLTQFRAALLEAGMPECTEDK
B3: ankyrin repeat domain 28 (ANKRD28), scaffolding subunit of PP6 (protein, UniProt O15084 1-1053)
chain: MAFLKLRDQPSLVQAIFNGDPDEVRALIFKKEDVNFQDNEKRTPLHAAAYLGDAEIIELLILSGARVNAKDSKWLTPLHRAVASCSEEAVQVLLKHSADVNARDKNWQTPLHIAAANKAVKCAEALVPLLSNVNVSDRAGRTALHHAAFSGHGEMVKLLLSRGANINAFDKKDRRAIHWAAYMGHIEVVKLLVSHGAEVTCKDKKSYTPLHAAASSGMISVVKYLLDLGVDMNEPNAYGNTPLHVACYNGQDVVVNELIDCGAIVNQKNEKGFTPLHFAAASTHGALCLELLVGNGADVNMKSKDGKTPLHMTALHGRFSRSQTIIQSGAVIDCEDKNGNTPLHIAARYGHELLINTLITSGADTAKRGIHGMFPLHLAALSGFSDCCRKLLSSGFDIDTPDDFGRTCLHAAAAGGNLECLNLLLNTGADFNKKDKFGRSPLHYAAANCNYQCLFALVGSGASVNDLDERGCTPLHYAATSDTDGKCLEYLLRNDANPGIRDKQGYNAVHYSAAYGHRLCLQLIASETPLDVLMETSGTDMLSDSDNRATISPLHLAAYHGHHQALEVLVQSLLDLDVRNSSGRTPLDLAAFKGHVECVDVLINQGASILVKDYILKRTPIHAAATNGHSECLRLLIGNAEPQNAVDIQDGNGQTPLMLSVLNGHTDCVYSLLNKGANVDAKDKWGRTALHRGAVTGHEECVDALLQHGAKCLLRDSRGRTPIHLSAACGHIGVLGALLQSAASMDANPATADNHGYTALHWACYNGHETCVELLLEQEVFQKTEGNAFSPLHCAVINDNEGAAEMLIDTLGASIVNATDSKGRTPLHAAAFTDHVECLQLLLSHNAQVNSVDSTGKTPLMMAAENGQTNTVEMLVSSASAELTLQDNSKNTALHLACSKGHETSALLILEKITDRNLINATNAALQTPLHVAARNGLTMVVQELLGKGASVLAVDENGYTPALACAPNKDVADCLALILATMMPVSSSSPLSSLTFNAINRYTNTSKTVSFEALPIMRNEPSSYCSFNNIGGEQEYLYTDVDELNDSDSETY
B4: serine/threonine-protein phosphatase 6 regulatory subunit 3, SAPS3 (endogenous, 293T) (protein, UniProt Q5H9R7 1-873)
chain: MFWKFDLHSSSHIDTLLEREDVTLKELMDEEDVLQECKAQNRKLIEFLLKAECLEDLVSFIIEEPPQDMDEKIRYKYPNISCELLTSDVSQMNDRLGEDESLLMKLYSFLLNDSPLNPLLASFFSKVLSILISRKPEQIVDFLKKKHDFVDLIIKHIGTSAIMDLLLRLLTCIEPPQPRQDVLNWLNEEKIIQRLVEIVHPSQEEDRHSNASQSLCEIVRLSRDQMLQIQNSTEPDPLLATLEKQEIIEQLLSNIFHKEKNESAIVSAIQILLTLLETRRPTFEGHIEICPPGMSHSACSVNKSVLEAIRGRLGSFHELLLEPPKKSVMKTTWGVLDPPVGNTRLNVIRLISSLLQTNTSSINGDLMELNSIGVILNMFFKYTWNNFLHTQVEICIALILASPFENTENATITDQDSTGDNLLLKHLFQKCQLIERILEAWEMNEKKQAEGGRRHGYMGHLTRIANCIVHSTDKGPNSALVQQLIKDLPDEVRERWETFCTSSLGETNKRNTVDLVTTCHIHSSSDDEIDFKETGFSQDSSLQQAFSDYQMQQMTSNFIDQFGFNDEKFADQDDIGNVSFDRVSDINFTLNTNESGNIALFEACCKERIQQFDDGGSDEEDIWEEKHIAFTPESQRRSSSGSTDSEESTDSEEEDGAKQDLFEPSSANTEDKMEVDLSEPPNWSANFDVPMETTHGAPLDSVGSDVWSTEEPMPTKETGWASFSEFTSSLSTKDSLRSNSPVEMETSTEPMDPLTPSAAALAVQPEAAGSVAMEASSDGEEDAESTDKVTETVMNGGMKETLSLTVDAKTETAVFKSEEGKLSTSQDAACKDAEECPETAEAKCAAPRPPSSSPEQRTGQPSAPGDTSVNGPV

This test concerns the target Flag-tagged AMPKα2. Briefly: affinity purification with mass spectrometry; Flag-AMPKα2 expressed in 293T; glucose deprived 6 h, glucose added back 1 h; lysis in 150 mM KCl, 0.2% NP-40, 10% glycerol, 20 mM Tris pH 7.5, 0.5 mM DTT; anti-Flag beads overnight, eluted with Flag peptide, SDS-PAGE, mass spectrometry.
For B1, the binding entry is “binds”.
For B2, the binding result is on record as “binds”.
On to B3, for which the binding result is “binds”.
Turning to B4, the binding result is reported as “binds”.
